The entries are a selection whose mix differs from that of the whole data set. Single values of this set are uncertain.
compound: COC(=O)/C=C/c1ccccc1 [methyl cinnamate]; experiment: log2 ratio of iodoacetamide-alkyne labeling of the cysteine site, DMSO over compound (competition); higher = stronger covalent engagement of the cysteine by the compound, active = 1 or more; conditions: 500 µM; treatment time 1 h; system: HEK293T cell lysate
Procedure, shortened: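 HEK293T lysate (2 mg/mL) was incubated with electrophile (500 µM) or vehicle for 1 h at ambient temperature and then with iodoacetamide alkyne for 1 h. Labelled proteins were clicked to sCIP-TMT reagents, pooled, digested, enriched on streptavidin and measured by Orbitrap Eclipse LC-MS/MS with FAIMS, with FragPipe quantification. The per-cysteine log2 competition ratio is mean control-channel reporter intensity over mean compound-channel reporter intensity. Across three replicates with duplicate channels, cysteines quantified in only one replicate were excluded.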

Sequences of proteins named here, by UniProt entry; tags and fusion partners are left off. A change or cut given only in a name is not applied to a line headed by its entry.
UniProt P55265: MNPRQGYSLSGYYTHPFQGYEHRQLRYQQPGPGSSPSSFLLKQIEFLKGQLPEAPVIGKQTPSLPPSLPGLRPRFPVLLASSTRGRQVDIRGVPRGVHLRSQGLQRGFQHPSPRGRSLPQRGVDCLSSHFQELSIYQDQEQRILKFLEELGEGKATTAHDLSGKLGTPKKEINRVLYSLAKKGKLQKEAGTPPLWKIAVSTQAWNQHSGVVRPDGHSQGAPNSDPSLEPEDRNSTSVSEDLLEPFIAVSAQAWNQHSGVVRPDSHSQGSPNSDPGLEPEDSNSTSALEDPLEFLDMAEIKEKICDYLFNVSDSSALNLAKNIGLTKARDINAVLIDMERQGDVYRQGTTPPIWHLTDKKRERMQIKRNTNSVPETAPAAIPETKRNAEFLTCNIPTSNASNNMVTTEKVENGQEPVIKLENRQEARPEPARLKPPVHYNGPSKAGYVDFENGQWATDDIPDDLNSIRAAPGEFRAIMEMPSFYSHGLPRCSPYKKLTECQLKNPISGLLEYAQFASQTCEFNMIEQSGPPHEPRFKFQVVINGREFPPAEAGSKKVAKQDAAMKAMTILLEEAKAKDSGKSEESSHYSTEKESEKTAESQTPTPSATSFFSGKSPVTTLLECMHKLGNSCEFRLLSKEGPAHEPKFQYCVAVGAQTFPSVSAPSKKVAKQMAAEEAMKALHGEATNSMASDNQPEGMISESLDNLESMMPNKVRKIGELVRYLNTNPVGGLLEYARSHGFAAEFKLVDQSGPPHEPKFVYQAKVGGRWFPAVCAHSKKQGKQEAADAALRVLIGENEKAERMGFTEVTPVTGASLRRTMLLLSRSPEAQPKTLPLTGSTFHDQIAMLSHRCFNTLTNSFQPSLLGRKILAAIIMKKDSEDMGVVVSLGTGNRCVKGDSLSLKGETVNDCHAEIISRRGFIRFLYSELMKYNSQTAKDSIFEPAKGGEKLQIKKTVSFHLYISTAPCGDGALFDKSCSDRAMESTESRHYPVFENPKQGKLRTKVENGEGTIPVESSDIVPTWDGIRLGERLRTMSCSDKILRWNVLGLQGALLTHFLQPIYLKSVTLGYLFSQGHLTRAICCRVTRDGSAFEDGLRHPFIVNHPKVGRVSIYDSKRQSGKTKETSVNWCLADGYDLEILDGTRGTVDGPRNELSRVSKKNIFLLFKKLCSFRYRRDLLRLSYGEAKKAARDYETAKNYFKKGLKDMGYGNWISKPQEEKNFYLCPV
UniProt P56134: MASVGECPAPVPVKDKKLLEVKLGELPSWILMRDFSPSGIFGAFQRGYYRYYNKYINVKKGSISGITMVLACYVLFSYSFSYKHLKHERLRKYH
UniProt P55036: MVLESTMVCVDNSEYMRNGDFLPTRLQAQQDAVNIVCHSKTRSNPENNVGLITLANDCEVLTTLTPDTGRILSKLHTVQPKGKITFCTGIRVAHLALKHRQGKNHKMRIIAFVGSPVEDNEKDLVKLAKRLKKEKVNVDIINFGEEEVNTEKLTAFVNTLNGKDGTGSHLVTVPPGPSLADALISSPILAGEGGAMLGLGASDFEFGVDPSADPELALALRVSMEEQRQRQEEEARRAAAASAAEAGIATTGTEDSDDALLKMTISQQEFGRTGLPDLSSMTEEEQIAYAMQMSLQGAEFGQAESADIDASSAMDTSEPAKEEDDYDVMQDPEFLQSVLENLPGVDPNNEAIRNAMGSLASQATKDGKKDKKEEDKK
UniProt P55786: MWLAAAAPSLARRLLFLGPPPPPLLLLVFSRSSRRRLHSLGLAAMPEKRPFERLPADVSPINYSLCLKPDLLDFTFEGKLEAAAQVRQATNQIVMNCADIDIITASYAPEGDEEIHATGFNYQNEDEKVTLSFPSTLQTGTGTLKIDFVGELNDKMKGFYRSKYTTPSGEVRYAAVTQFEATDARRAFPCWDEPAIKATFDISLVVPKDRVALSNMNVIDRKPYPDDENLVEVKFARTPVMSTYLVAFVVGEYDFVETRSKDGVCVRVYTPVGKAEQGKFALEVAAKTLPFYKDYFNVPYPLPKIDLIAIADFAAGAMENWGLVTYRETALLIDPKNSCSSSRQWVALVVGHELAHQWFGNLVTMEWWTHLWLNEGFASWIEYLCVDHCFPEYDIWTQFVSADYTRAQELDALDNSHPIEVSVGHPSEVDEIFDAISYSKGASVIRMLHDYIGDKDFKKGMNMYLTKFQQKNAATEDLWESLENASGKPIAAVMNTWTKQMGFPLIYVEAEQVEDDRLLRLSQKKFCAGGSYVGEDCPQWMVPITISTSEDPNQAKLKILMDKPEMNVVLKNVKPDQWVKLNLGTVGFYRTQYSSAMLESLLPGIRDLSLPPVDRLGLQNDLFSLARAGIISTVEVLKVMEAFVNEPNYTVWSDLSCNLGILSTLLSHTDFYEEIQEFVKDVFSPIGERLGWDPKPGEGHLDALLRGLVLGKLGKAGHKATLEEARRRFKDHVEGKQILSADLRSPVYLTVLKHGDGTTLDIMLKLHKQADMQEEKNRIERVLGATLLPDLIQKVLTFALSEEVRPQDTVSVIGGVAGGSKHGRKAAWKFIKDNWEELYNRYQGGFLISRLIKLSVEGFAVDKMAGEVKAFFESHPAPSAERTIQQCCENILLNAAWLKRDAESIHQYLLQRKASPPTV
UniProt P52888, whole entry, looked up: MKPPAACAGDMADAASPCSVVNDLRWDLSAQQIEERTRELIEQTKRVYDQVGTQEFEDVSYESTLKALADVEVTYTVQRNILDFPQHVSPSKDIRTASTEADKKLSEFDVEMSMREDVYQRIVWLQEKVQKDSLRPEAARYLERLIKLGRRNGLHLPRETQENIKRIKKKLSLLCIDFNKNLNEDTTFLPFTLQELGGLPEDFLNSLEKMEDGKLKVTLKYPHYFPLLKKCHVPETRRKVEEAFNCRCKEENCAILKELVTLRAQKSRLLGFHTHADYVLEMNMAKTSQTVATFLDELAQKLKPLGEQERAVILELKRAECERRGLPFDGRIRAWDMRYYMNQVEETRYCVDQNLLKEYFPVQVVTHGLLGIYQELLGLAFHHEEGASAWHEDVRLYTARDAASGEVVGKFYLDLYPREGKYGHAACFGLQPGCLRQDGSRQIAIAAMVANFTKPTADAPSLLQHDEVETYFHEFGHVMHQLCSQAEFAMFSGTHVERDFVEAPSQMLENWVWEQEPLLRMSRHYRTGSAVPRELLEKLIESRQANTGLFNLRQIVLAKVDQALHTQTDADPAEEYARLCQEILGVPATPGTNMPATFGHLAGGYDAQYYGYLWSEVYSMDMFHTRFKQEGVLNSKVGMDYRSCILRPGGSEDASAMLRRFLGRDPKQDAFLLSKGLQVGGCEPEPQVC
UniProt P53609, whole entry, looked up: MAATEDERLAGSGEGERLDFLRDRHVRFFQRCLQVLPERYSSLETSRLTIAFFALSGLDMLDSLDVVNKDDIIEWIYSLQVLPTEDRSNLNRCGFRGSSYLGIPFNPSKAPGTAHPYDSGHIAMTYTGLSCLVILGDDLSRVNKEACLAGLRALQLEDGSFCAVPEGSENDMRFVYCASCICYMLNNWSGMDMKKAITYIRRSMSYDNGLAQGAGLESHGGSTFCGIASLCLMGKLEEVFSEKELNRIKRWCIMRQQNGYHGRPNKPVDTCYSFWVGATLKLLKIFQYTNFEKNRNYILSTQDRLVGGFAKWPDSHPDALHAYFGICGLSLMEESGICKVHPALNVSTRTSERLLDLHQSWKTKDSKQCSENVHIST
UniProt P54198, whole entry, looked up: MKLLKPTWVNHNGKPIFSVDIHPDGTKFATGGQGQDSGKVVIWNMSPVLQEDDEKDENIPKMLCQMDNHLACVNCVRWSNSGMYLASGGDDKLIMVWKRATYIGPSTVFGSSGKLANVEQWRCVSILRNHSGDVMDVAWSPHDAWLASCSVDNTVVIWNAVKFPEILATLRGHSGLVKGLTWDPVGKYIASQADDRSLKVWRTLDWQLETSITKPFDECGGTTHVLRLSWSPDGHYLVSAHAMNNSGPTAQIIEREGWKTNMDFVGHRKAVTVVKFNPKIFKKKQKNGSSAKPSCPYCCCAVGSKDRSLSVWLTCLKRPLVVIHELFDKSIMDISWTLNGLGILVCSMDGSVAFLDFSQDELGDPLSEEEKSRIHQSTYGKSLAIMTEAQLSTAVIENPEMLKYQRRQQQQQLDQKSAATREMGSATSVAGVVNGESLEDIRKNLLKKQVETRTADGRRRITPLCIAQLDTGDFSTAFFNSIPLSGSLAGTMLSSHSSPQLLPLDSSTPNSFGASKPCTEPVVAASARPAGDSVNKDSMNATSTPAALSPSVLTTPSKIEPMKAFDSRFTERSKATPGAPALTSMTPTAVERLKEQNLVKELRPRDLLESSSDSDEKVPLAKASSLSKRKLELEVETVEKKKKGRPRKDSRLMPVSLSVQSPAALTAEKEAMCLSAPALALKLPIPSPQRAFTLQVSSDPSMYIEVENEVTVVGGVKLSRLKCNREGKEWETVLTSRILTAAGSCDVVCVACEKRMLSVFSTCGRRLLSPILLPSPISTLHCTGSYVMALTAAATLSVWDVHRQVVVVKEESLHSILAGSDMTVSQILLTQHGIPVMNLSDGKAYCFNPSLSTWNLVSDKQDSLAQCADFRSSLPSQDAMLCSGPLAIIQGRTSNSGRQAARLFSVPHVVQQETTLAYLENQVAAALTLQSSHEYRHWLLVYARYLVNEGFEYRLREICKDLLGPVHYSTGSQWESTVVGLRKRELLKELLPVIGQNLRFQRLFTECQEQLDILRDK
UniProt P55060: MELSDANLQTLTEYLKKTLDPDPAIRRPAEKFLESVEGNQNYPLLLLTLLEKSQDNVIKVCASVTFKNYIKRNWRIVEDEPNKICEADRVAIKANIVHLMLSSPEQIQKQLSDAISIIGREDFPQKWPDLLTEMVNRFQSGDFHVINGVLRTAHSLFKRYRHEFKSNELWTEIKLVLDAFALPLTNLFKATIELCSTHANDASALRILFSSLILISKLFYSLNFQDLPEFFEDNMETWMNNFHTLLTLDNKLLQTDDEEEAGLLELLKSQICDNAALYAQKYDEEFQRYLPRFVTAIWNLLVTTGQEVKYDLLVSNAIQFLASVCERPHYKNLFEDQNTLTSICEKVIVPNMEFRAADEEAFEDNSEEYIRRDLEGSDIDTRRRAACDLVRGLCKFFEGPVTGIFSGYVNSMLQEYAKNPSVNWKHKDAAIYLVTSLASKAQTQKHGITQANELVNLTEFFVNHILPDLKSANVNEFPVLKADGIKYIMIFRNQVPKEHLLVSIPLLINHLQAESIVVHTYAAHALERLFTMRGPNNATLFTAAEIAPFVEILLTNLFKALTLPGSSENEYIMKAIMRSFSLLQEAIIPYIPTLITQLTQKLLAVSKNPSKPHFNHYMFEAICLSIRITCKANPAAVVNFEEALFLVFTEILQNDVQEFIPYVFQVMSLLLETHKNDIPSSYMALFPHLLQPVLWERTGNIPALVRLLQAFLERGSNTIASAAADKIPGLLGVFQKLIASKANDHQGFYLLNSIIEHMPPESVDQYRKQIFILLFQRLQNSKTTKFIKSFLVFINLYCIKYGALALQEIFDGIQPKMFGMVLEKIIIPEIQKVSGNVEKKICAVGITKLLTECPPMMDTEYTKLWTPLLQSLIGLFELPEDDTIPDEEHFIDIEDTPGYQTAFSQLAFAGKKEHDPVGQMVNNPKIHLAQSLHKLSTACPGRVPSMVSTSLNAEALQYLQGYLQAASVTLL
UniProt P54886: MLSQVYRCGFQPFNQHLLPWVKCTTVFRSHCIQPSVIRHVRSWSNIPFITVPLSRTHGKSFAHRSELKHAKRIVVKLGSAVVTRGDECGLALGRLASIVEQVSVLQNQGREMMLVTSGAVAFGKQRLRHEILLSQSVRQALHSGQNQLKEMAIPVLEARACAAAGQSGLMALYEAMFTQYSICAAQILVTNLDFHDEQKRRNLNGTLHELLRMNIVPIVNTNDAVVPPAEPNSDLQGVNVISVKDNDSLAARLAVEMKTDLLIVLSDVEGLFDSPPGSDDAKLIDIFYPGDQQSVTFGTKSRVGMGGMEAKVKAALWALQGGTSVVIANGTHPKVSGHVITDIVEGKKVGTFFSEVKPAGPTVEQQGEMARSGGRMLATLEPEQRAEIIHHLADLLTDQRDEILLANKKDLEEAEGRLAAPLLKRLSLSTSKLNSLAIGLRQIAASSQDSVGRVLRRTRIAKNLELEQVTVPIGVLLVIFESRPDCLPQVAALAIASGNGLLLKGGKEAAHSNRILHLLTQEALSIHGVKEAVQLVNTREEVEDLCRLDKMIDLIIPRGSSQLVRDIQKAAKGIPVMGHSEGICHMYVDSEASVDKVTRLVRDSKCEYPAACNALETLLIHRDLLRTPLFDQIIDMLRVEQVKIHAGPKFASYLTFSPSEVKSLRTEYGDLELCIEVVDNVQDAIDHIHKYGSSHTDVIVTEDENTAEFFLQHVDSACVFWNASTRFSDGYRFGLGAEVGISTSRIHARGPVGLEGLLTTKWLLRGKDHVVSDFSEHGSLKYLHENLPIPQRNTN

log2 ratio of iodoacetamide-alkyne labeling, inactive:
UniProt P62241_C174 0.0337, UniProt P55072_C535 -0.0182, GEMIN4 C210 (UniProt P57678) -0.000844, CLNS1A C73 (UniProt P54105) 0.25, HK2 C158 (UniProt P52789) 0.0472, ADAR C499 (UniProt P55265) 0.18, UniProt P56134_C7 0.419, COPB1 C248 (UniProt P53618) 0.336, UniProt P60604_C89 0.0553, UniProt P55196_C1742 0.569, PSMD4 C37 (UniProt P55036) 0.0898, HDGF C108 (UniProt P51858) 0.255, COPB1 C284 (UniProt P53618) 0.142, UniProt P61106_C40 0.314, MVD C386 (UniProt P53602) -0.00555, UniProt P61221_C88 0.0838, NPEPPS C887 (UniProt P55786) 0.196, THOP1 C7 (UniProt P52888) 0.552, RAP1GDS1 C85 (UniProt P52306) -0.174, RARS C32 (UniProt P54136) 0.313, COPA C453 (UniProt P53621) 0.0996, PGGT1B C369 (UniProt P53609) 0.293, HIRA C1007 (UniProt P54198) 0.272, UniProt P61927_C37 0.103, HNRNPH2 C290 (UniProt P55795) -0.0697, UniProt P61160_C221 0.62, RPS3A C96 (UniProt P61247) 0.0771, THOP1 C18 (UniProt P52888) 0.552, UniProt P62241_C72 0.0344, USP14 C415 (UniProt P54578) -0.0184, UniProt P61077_C85 0.217, HSD17B4 C535 (UniProt P51659) -0.152, CSE1L C344 (UniProt P55060) 0.384, ALDH18A1 C612 (UniProt P54886) -0.0501, UniProt P61978_C205 0.15, POLR2F C76 (UniProt P61218) 0.0278, PSMD4 C9 (UniProt P55036) 0.0318

— the supplement of paper PMC11006884
